Data from patent publication US20250235460A1, “COMBINATION THERAPY USING GLUCOSE-DEPENDENT INSULINOTROPIC POLYPEPTIDE RECEPTOR ANTAGONIST COMPOUNDS AND GLP-1 RECEPTOR AGONIST COMPOUNDS” (Pfizer Inc., priority 2024, published 2025).

Chains of the proteins cited; added tags and fusions are not shown. Residues count along the entry.
UniProt P43220, 24-463 G168S limits assumed: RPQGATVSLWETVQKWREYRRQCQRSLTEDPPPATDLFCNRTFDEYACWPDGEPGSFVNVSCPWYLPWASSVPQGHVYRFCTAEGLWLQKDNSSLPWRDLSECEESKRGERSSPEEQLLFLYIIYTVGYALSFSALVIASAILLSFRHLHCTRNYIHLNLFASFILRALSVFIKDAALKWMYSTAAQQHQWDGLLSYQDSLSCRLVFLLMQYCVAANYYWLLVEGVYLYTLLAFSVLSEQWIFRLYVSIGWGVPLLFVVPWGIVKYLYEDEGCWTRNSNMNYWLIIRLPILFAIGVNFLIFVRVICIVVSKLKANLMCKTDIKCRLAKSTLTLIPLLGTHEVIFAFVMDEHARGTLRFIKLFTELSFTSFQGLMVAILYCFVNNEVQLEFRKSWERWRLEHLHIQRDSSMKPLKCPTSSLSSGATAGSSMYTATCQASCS
UniProt P43220, 24-463 L260F limits assumed: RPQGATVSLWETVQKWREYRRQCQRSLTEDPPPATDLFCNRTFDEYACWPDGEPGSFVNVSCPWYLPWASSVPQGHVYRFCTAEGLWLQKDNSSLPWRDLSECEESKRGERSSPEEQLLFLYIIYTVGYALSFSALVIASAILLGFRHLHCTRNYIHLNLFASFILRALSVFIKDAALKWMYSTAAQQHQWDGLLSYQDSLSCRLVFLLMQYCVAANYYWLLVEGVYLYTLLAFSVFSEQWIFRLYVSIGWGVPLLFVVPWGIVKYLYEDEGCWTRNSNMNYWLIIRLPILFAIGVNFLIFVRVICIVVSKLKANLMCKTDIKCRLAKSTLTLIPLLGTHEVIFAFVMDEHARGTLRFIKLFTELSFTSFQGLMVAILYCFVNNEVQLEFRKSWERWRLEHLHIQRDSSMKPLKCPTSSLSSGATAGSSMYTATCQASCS

Experiments:
human GLP-1R [1] = target: human GLP-1R (Homo sapiens, UniProt P43220, G168S); experiment: CHO GLP-1R Clone H6 cAMP HTRF agonist assay (Assay 1, high receptor density); assay type: cell-based; settings: for Assay 1 Emax (%): CHO GLP-1R clone H6, arithmetic mean, relative to saturating GLP-1 (1 μM); for EC50: read-out: Assay 1 EC50, CHO GLP-1R clone H6, cAMP HTRF, geometric mean
human GLP-1R [2] = target: human GLP-1R (Homo sapiens, UniProt P43220, L260F); experiment: CHO GLP-1R Clone C6 cAMP HTRF agonist assay (Assay 2, low receptor density); assay type: cell-based; settings: for Assay 2 Emax (%): CHO GLP-1R clone C6, arithmetic mean, relative to saturating GLP-1 (1 μM); for EC50: read-out: Assay 2 EC50, CHO GLP-1R clone C6, cAMP HTRF, geometric mean

Row | Compound | Assay 1 Emax (%) (human GLP-1R [1]) | EC50 (human GLP-1R [1]) [nM] | Assay 2 Emax (%) (human GLP-1R [2]) | EC50 (human GLP-1R [2]) [nM] | Assay 1 Emax (%) (human GLP-1R [1]; tested form: HCl) | EC50 (human GLP-1R [1]; tested form: HCl) [nM] | Assay 2 Emax (%) (human GLP-1R [2]; tested form: HCl) | EC50 (human GLP-1R [2]; tested form: HCl) [nM]
1 | CCn1cncc1Cn1c(CN2CCC(c3cccc(OCc4ccc(Cl)cc4F)n3)CC2)nc2ccc(C(=O)O)cc21 | 99 | 100 | 90 | 1100 |  |  |  | 
2 | C[C@H]1CN(c2cccc(OCc3ccc(C#N)cc3F)n2)CCN1Cc1nc2ccc(C(=O)O)cc2n1Cc1cnnn1C | 86 | 0.58 | 110 | 11 |  |  |  | 
3 | O=C(O)c1ccc2nc(CN3CCN(c4cccc(OCc5ccc(Cl)cc5F)n4)CC3)n(C[C@H]3CCO3)c2c1 | 79 | 2.9 | 95 | 51 |  |  |  | 
4 | Cn1c(CN2CCC(c3cccc(OCc4ccc(Cl)cc4F)n3)CC2)nc2ccc(C(=O)O)cc21 |  |  |  |  | 72 | 1.3 | 87 | 27
5 | O=C(O)c1ccc2nc(CN3CCC(c4cccc(OCc5ccc(Cl)cc5F)n4)CC3)n(Cc3ccno3)c2c1 | 83 | 0.94 | 98 | 12 |  |  |  | 
6 | C[C@H]1CN(c2cccc(OCc3ccc(Cl)cc3F)n2)CCN1Cc1nc2ccc(C(=O)O)cc2n1Cc1cnnn1C | 96 | 2.9 | 97 | 28 |  |  |  | 
7 | CCn1cncc1Cn1c(CN2CCN(c3cccc(OCc4ccc(Cl)cc4F)n3)C[C@@H]2C)nc2ccc(C(=O)O)cc21 | 88 | 0.76 | 100 | 8.8 |  |  |  | 
8 | Cn1c(CN2CCC(c3cccc(OCc4ccc(Cl)cc4F)n3)CC2)nc2cc(Cl)c(C(=O)O)cc21 | 75 | 13 | 80 | 250 |  |  |  | 

Like-named read-outs stand apart in the source and are kept apart here. The structures given here were assigned with low confidence; some may be wrong.
